# Experimental data published in paper PMC3407074.
# The chains behind the UniProt entries cited, without tags or fusion partners. Residues count along the entry.
# UniProt Q8I1Y0, residues 21-378: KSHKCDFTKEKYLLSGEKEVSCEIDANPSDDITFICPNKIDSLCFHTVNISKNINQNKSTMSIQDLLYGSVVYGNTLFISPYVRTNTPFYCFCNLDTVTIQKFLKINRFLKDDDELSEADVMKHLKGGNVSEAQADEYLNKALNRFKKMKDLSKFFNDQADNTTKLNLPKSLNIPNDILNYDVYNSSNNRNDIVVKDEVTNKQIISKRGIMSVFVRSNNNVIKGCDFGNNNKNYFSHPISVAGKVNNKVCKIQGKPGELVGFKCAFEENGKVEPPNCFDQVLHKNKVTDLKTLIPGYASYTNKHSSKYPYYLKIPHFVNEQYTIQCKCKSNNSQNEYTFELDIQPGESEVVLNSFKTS
# No constants are given. Whether binding was seen depends on the method and setting. Binding seen in cells or lysates may run through a third protein. Here binding means that the protein was enriched with, or labelled near, the bait; the list need not be complete. No binding means not detected with the bait.
# Biological target: T1, native P12 (Plasmodium falciparum (endogenous in 3D7 and CS2 parasites)) (UniProt C6KSX0)
# T1 sequence: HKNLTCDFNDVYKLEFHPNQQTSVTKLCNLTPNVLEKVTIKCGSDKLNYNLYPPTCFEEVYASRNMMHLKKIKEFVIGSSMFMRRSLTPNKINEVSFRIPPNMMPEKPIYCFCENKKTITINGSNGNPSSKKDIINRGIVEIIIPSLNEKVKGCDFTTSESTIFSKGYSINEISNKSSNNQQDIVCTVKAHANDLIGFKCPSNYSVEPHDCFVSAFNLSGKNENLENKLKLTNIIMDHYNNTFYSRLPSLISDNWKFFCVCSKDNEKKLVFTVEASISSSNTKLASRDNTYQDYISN
# Experiment: affinity purification with mass spectrometry; 3D7 schizont lysate in 1% Triton X-100 in PBS, rabbit anti-P12 IgG on Protein G agarose; eluted in turn with 0.1 M glycine, 0.1 M glycine with 1 M NaCl, and 2% SDS; Coomassie bands identified by LC-MS/MS
row,Substance,binding
1,native P41 (from UniProt Q8I1Y0 21-378),binds
2,ER localised HSP70 BIP,no binding
